Measured values taken from the supplement of paper PMC10331698.
± gives the standard deviation of the averaged measurements. Most values lie at the level of the controls, where differences are scatter.

What was measured:
Assay in all cases: level (log10 ratio to DMSO vehicle control); higher = higher biomarker level / cell amount than vehicle control
[1] = compound: C=CC(=O)OCC(F)(F)C(F)(F)C(F)(F)C(F)(F)C(F)(F)C(F)(F)C(F)(F)F [1H,1H-Perfluorooctyl acrylate]; details: 2200 nM; in DMSO
Procedure: (§1)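 BioMAP Diversity Plus panel of 12 human primary cell co-culture systems (3C, 4H, LPS, SAg, BT, BF4T, BE3C, CASM3C, HDF3CGF, KF3CT, MyoF, Mphg). Compounds were added 1 h before stimulation and left for 24 h (MyoF 48 h; BT 72 h for soluble read-outs or 6 d for IgG). Biomarkers were read by ELISA, cytotoxicity by SRB, PBMC viability and proliferation by Alamar Blue. Each well value was divided by the mean of 8 DMSO control wells on the same plate and log10 transformed; duplicate blinded samples were tested at 4 concentrations.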

Pentafluoropropionamide = compound: NC(=O)C(F)(F)C(F)(F)F [Pentafluoropropionamide]; details: 2200 nM; in DMSO
Procedure: as §1

[2] = compound: C=C(C)C(=O)OCC(F)(F)C(F)(F)C(F)(F)C(F)(F)C(F)(F)C(F)(F)C(F)(F)F; details: in DMSO
Procedure: as §1

[3] = compound: O=S(=O)(O)C(F)(F)C(F)(F)C(F)(F)C(F)(F)C(F)(F)C(F)(F)C(F)(F)C(F)(F)F [Perfluorooctanesulfonic acid]; details: 2200 nM; in DMSO
Procedure: as §1

[4] = compound: CO[Si](C)(CCC(F)(F)C(F)(F)C(F)(F)C(F)(F)C(F)(F)C(F)(F)F)OC [Dimethoxymethyl((perfluorohexyl)ethyl)silane]; details: in DMSO
Procedure: as §1

[5] = compound: O=S(=O)(O)C(F)(F)C(F)(F)C(F)(F)C(F)(F)C(F)(F)C(F)(F)C(F)(F)C(F)(F)F [Potassium perfluorooctanesulfonate]; details: 2200 nM; in DMSO
Procedure: as §1

[6] = compound: O=P(O)(O)CCC(F)(F)C(F)(F)C(F)(F)C(F)(F)C(F)(F)C(F)(F)F [2-(Perfluorohexyl)ethylphosphonic acid]; details: 2200 nM; in DMSO
Procedure: as §1

[7] = compound: FC(F)(F)C(F)(F)C(F)(F)CC1CO1 [1H,1H-Heptafluorobutyl epoxide]; details: 2200 nM; in DMSO
Procedure: as §1

[8] = compound: O=C(O)C(F)(F)C(F)(F)C(F)F [4H-Perfluorobutanoic acid]; details: in DMSO
Procedure: as §1

[9] = compound: OCC(F)(F)C(F)(F)C(F)(F)C(F)(F)C(F)(F)C(F)F [1H,1H,7H-Dodecafluoro-1-heptanol]; details: 2200 nM; in DMSO
Procedure: as §1

[10] = compound: NS(=O)(=O)C(F)(F)C(F)(F)C(F)(F)C(F)(F)C(F)(F)C(F)(F)C(F)(F)C(F)(F)F [Perfluorooctanesulfonamide]; details: in DMSO
Procedure: as §1

[11] = compound: C=CC(F)(F)C(F)(F)C(F)(F)C(F)(F)C(F)(F)C(F)(F)C(F)(F)C(F)(F)C=C [1,8-Divinylperfluorooctane]; details: in DMSO
Procedure: as §1

[12] = compound: COC(=O)C(F)(F)C(F)(F)OC(F)(C(F)(F)F)C(F)(F)OC(F)=C(F)F [Methyl perfluoro(3-(1-ethenyloxypropan-2-yloxy)propanoate)]; details: in DMSO
Procedure: as §1

Heptafluorobutyl iodide = compound: FC(F)(F)C(F)(F)C(F)(F)CI [Heptafluorobutyl iodide]; details: 2200 nM; in DMSO
Procedure: as §1

[13] = compound: O=S(=O)(OCC(F)(F)F)C(F)(F)C(F)(F)C(F)(F)C(F)(F)F [2,2,2-Trifluoroethyl perfluorobutanesulfonate]; details: 2200 nM; in DMSO
Procedure: as §1

[14] = compound: NC(=O)C(F)(F)C(F)(F)C(F)(F)C(F)F; details: in DMSO
Procedure: as §1

[15] = compound: O=S(=O)(F)C(F)(F)C(F)(F)C(F)(F)C(F)(F)C(F)(F)C(F)(F)C(F)(F)C(F)(F)F [Perfluorooctanesulfonyl fluoride]; details: 2200 nM; in DMSO
Procedure: as §1

[16] = compound: OCCCCC(F)(F)C(F)(F)C(F)(F)C(F)(F)F [4:4 Fluorotelomer alcohol]; details: 2200 nM; in DMSO
Procedure: as §1

Test System	level (log10) [1]	level (log10) (Pentafluoropropionamide)	level (log10) ([2]; 740 nM)	level (log10) ([2]; 2200 nM)	level (log10) [3]	level (log10) ([4]; 740 nM)	level (log10) ([4]; 2200 nM)	level (log10) [5]	level (log10) [6]	level (log10) [7]	level (log10) ([8]; 2200 nM)	level (log10) ([8]; 6700 nM)	level (log10) ([8]; 20000 nM)	level (log10) ([8]; 60000 nM)	level (log10) [9]	level (log10) ([10]; 2200 nM)	level (log10) ([10]; 6700 nM)	level (log10) ([10]; 20000 nM)	level (log10) ([11]; 740 nM)	level (log10) ([11]; 2200 nM)	level (log10) ([12]; 740 nM)	level (log10) ([12]; 2200 nM)	level (log10) (Heptafluorobutyl iodide)	level (log10) [13]	level (log10) ([14]; 2200 nM)	level (log10) ([14]; 6700 nM)	level (log10) ([14]; 20000 nM)	level (log10) ([14]; 60000 nM)	level (log10) [15]	level (log10) [16]
BT:Secreted IgG	0.017 ± 0.0042	0.0015 ± 0.036	-0.019 ± 0.11	-0.0025 ± 0.018	0.0005 ± 0.015	0.0275 ± 0.039	-0.007 ± 0.095	0.035 ± 0.025	0.025 ± 0.011	0.018 ± 0.0099	-0.028 ± 0.051	0.0315 ± 0.036	0.0205 ± 0.03	0.014 ± 0.041	0.0165 ± 0.028	0.0055 ± 0.021	-0.018 ± 0.0085	-0.141 ± 0.1	-0.0095 ± 0.00071	0.016 ± 0.013	0.0285 ± 0.032	0.021 ± 0.033	0.0165 ± 0.021	0.022 ± 0.017	-0.0195 ± 0.037	0.0115 ± 0.073	0.026 ± 0.0085	-0.0005 ± 0.026	0.008 ± 0.0071	0.0145 ± 0.005
BT:sIL-2	0.058 ± 0.0014	0.0455 ± 0.053	-0.01 ± 0.089	-0.048 ± 0.069	-0.039	0.0545 ± 0.077	0.0515 ± 0.025	0.0355 ± 0.1	0.08 ± 0.025	-0.007 ± 0.075	-0.0505 ± 0.097	0.0065 ± 0.054	-0.0275 ± 0.14	-0.056 ± 0.017	0.0385 ± 0.011	-0.0055 ± 0.029	-0.0115 ± 0.049	0.0005 ± 0.028	0.04 ± 0.0099	0.054 ± 0.048	-0.0075 ± 0.16	0.0545 ± 0.081	0.011 ± 0.096	-0.002 ± 0.0042	-0.051 ± 0.018	0.002 ± 0.058	-0.056 ± 0.051	0.04 ± 0.0099	-0.067 ± 0.059	-0.0225 ± 0.018
BT:sIL-6	-0.0065 ± 0.011	0.0135 ± 0.015	-0.005 ± 0.0057	0.0285 ± 0.05	0.013 ± 0.0028	0.055 ± 0.014	-0.007 ± 0.011	0.0135 ± 0.04	0.031 ± 0.017	-0.0095 ± 0.00071	-0.0385 ± 0.052	-0.008	-0.046 ± 0.031	-0.0915 ± 0.026	0.0055 ± 0.12	-0.021 ± 0.018	-0.0455 ± 0.023	-0.0485 ± 0.026	0.0305 ± 0.022	0.072 ± 0.057	-0.001 ± 0.02	0.0315 ± 0.015	-0.0075 ± 0.016	0.0565 ± 0.0064	-0.0365 ± 0.016	0.0315 ± 0.074	-0.0335 ± 0.023	-0.0795 ± 0.11	-0.0555 ± 0.056	-0.015 ± 0.064
BT:sIL-17A	-0.0765 ± 0.056	-0.026 ± 0.024	-0.0115 ± 0.053	0.0025 ± 0.097	0.0815 ± 0.021	0.0465 ± 0.12	-0.0345 ± 0.012	0.043 ± 0.055	0.0785 ± 0.032	-0.041 ± 0.099	-0.0835 ± 0.12	0.067 ± 0.13	-0.085 ± 0.02	-0.158 ± 0.033	-0.121 ± 0.1	-0.051 ± 0.038	-0.0315 ± 0.16	0.0435 ± 0.052	0.058 ± 0.21	0.127 ± 0.076	0.039 ± 0.028	-0.0445 ± 0.4	-0.169 ± 0.091	0.096 ± 0.21	-0.116 ± 0.059	0.059 ± 0.033	0.025 ± 0.19	-0.0885 ± 0.32	-0.112 ± 0.14	-0.053 ± 0.1
BT:sIL-17F	-0.055 ± 0.0085	-0.0285 ± 0.015	0.037 ± 0.016	0.019 ± 0.059	-0.0175 ± 0.032	0.0355 ± 0.13	-0.079 ± 0.088	-0.034 ± 0.034	-0.008 ± 0.069	-0.008 ± 0.017	-0.0485 ± 0.31	-0.0445 ± 0.005	-0.067 ± 0.17	-0.0165 ± 0.036	-0.0905 ± 0.021	-0.01 ± 0.024	-0.0365 ± 0.084	-0.0785 ± 0.11	0.036 ± 0.034	0.0275 ± 0.046	-0.0165 ± 0.086	0.088 ± 0.17	-0.0605 ± 0.11	-0.0135 ± 0.049	-0.0335 ± 0.069	0.0335 ± 0.019	-0.0275 ± 0.015	-0.018 ± 0.023	0.0015 ± 0.077	-0.069 ± 0.0085
BT:sTNF-alpha	-0.0315 ± 0.037	0.002 ± 0.17	0.0645 ± 0.17	-0.069 ± 0.13	0.0395 ± 0.22	0.048 ± 0.14	0.085 ± 0.064	0.072 ± 0.16	0.096 ± 0.059	-0.104 ± 0.081	-0.0395 ± 0.067	-0.0585 ± 0.022	-0.055 ± 0.0071	-0.048 ± 0.13	-0.0435 ± 0.27	-0.0485 ± 0.03	-0.045 ± 0.13	-0.11 ± 0.15	0.0265 ± 0.21	-0.027 ± 0.079	-0.009 ± 0.025	0.0775 ± 0.044	0.113 ± 0.054	0.119 ± 0.11	0.038 ± 0.082	0.0475 ± 0.19	-0.0695 ± 0.0035	-0.0215 ± 0.047	0.0085 ± 0.028	-0.0025 ± 0.16
CASM3C:CCL2/MCP-1	0.0035 ± 0.026	0.012 ± 0.024	0.0155 ± 0.03	-0.009 ± 0.02	0.014 ± 0.076	0.0165 ± 0.042	0.0025 ± 0.005	0.0155 ± 0.069	0.002 ± 0.034	0.002 ± 0.0028	-0.013 ± 0.018	0.006	-0.0065 ± 0.012	0.0065 ± 0.016	-0.002 ± 0.014	0.0255 ± 0.00071	0.01 ± 0.013	0.01 ± 0.023	0.005 ± 0.035	-0.018 ± 0.037	0.0065 ± 0.037	-0.004 ± 0.0057	0.0205 ± 0.025	-0.01 ± 0.037	0.0035 ± 0.037	-0.0055 ± 0.013	-0.011 ± 0.018	0.015 ± 0.045	-0.007 ± 0.025	0.033 ± 0.048
CASM3C:CD87/uPAR	0.0195 ± 0.025	-0.008 ± 0.0071	-0.0115 ± 0.022	-0.0075 ± 0.0078	0.003 ± 0.0071	-0.0055 ± 0.013	-0.0145 ± 0.0035	-0.0055 ± 0.0021	-0.05 ± 0.025	-0.0205 ± 0.033	0 ± 0.014	-0.016 ± 0.013	0 ± 0.02	0.0055 ± 0.022	-0.0165 ± 0.0064	-0.0015 ± 0.013	-0.007 ± 0.031	-0.0055 ± 0.026	-0.0115 ± 0.015	-0.016 ± 0.024	-0.013 ± 0.047	-0.016 ± 0.034	-0.017 ± 0.024	-0.015 ± 0.051	-0.023 ± 0.017	-0.0115 ± 0.015	-0.0035 ± 0.0078	-0.019 ± 0.017	-0.0215 ± 0.0092	-0.0125 ± 0.059

An excerpt from above, limited to level (log10) ([8]; 60000 nM), level (log10) [3] and level (log10) ([12]; 740 nM):

| Test System | level (log10) ([8]; 60000 nM) | level (log10) [3] | level (log10) ([12]; 740 nM) |
| --- | --- | --- | --- |
| CASM3C:CCL2/MCP-1 | 0.0065 ± 0.016 | 0.014 ± 0.076 | 0.0065 ± 0.037 |
| CASM3C:CD87/uPAR | 0.0055 ± 0.022 | 0.003 ± 0.0071 | -0.013 ± 0.047 |
